{"source": "paper PMC3027617", "about": "(2011)", "biological_target": "2F5 monoclonal antibody (human)", "test": "SPR", "data": [{"binder": "2F5 epitope scaffold ES2 (designed binder) SDPVRQYLHEIGEVLELDKWAELGAAAKVEEGMEAIKKLSEATGLDQELIREVVRAKILGTAAIQKIPGLKEKPDPKTVEEVDGKLKSLPKELKRYLHIAREGEAARQHLIEANLRLVVSIAKKYTGRGLSFLDLIQEGNQGLIRAVEKFEYKRGFAFSTYATWWIRQAINRAIADQAR", "values": [{"measurement": "koff", "value": 0.00143, "unit": "s⁻¹"}]}]}
